Measured values published in article PMC6823292, “Molecular structure of human synaptonemal complex protein SYCE1” (Chromosoma, 2019).
Results are given in words; binding and its absence hold for the method and conditions named. Some entries that bind do so weakly or less than the wild type.

How the values were obtained:
[1] = target: human SYCE1 N-terminal region of amino acids 25–179 (yeast two-hybrid construct) (human) (UniProt Q8N0S2); assay: two-hybrid; Matchmaker Gold; pGBKT7 in Y187 mated with pGADT7 in Y2HGold; plated on SD/-Ade/-His/-Leu/-Trp/X-α-Gal, 5 days at 30 °C; reporters ADE1, HIS3, MEL1
[2] = target: human SYCE1 C-terminal region 177–305 (yeast two-hybrid construct) (human) (UniProt Q8N0S2); assay: as above
[3] = target: SYCE1 core tethered dimer (short linker) (human) (UniProt Q8N0S2); assay: SEC-MALS; 6–20 mg/ml loaded on Superdex 200 Increase 10/300 GL in 20 mM Tris pH 8.0, 150 mM KCl, 2 mM DTT; both purified

B1: human SYCE1 N-terminal region of amino acids 25–179 (yeast two-hybrid construct) (domain or fragment, UniProt Q8N0S2 25-179)
chain: GQDTSSQKIEDLMEMVQKLQKVGSLEPRVEVLINRINEVQQAKKKANKDLGEARTICEALQKELDSLHGEKVHLKEILSKKQETLRILRLHCQEKESEAHRKHTMLQECKERISALNLQIEEEKNKQRQLRLAFEEQLEDLMGQHKDLWDFHMPE
Which binding [1] does the source give for B1 here?
Its binding is “binds”.

B2: human SYCE1 C-terminal region 177–305 (yeast two-hybrid construct) (domain or fragment, UniProt Q8N0S2 177-305)
chain: MPERLAKEICALDSSKEQLLKEEKLVKATLEDVKHQLCSLCGAEGPSTLDEGLFLRSQEAAATVQLFQEEHRKAEELLAAAAQRHQQLQQKCQQQQQKRQRLKEELEKHGMQVPAQAQSTQEEEAGPGD
With B2 as the binder, how does the binding [2] read?
The binding was “no binding”.

B3: SYCE1 core tethered dimer (short linker) (protein, UniProt Q8N0S2 25-179; Q8N0S2 25-179)
chain: GQDTSSQKIEDLMEMVQKLQKVGSLEPRVEVLINRINEVQQAKKKANKDLGEARTICEALQKELDSLHGEKVHLKEILSKKQETLRILRLHCQEKESEAHRKHTMLQECKERISALNLQIEEEKNKQRQLRLAFEEQLEDLMGQHKDLWDFHMPEGQTNPGGQDTSSQKIEDLMEMVQKLQKVGSLEPRVEVLINRINEVQQAKKKANKDLGEARTICEALQKELDSLHGEKVHLKEILSKKQETLRILRLHCQEKESEAHRKHTMLQECKERISALNLQIEEEKNKQRQLRLAFEEQLEDLMGQHKDLWDFHMPE
B3 was tested. Which binding [3] did it give?
The binding was “no binding (tested: 6–20 mg/ml loaded)”.
